Assay results taken from the supplement of paper PMC10849652.
The other results are listed elsewhere or left out.

Chains of the proteins cited; added tags and fusions are not shown. Lines headed by an entry give the natural chain unless they say otherwise; changes in a name come on top.
UniProt O00291: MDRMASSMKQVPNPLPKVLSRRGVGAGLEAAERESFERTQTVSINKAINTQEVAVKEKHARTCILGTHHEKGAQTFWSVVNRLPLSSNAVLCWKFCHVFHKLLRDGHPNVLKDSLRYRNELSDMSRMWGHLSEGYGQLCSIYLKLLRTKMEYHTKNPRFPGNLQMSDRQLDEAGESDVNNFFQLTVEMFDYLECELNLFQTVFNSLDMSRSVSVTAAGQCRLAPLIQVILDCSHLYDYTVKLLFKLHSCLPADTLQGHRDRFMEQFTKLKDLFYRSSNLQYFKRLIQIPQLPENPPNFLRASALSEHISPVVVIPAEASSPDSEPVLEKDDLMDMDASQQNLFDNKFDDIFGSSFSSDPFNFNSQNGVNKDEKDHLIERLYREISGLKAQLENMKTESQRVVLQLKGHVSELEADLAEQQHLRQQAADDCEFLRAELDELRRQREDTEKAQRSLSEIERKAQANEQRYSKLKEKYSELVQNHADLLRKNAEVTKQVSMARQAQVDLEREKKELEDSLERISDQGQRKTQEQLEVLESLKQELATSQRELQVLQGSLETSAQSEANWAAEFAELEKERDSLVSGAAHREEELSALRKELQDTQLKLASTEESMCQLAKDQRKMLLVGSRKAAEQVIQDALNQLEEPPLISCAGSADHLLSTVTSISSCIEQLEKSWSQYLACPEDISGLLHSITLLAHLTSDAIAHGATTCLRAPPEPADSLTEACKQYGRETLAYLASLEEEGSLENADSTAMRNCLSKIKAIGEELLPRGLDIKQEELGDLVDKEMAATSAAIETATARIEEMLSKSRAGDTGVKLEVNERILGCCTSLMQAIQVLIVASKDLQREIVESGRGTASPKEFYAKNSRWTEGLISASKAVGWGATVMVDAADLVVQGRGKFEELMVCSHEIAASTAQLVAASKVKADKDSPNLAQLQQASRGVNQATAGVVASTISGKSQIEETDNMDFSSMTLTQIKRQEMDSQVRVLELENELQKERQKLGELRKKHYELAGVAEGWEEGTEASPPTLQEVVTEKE
UniProt Q8NG08: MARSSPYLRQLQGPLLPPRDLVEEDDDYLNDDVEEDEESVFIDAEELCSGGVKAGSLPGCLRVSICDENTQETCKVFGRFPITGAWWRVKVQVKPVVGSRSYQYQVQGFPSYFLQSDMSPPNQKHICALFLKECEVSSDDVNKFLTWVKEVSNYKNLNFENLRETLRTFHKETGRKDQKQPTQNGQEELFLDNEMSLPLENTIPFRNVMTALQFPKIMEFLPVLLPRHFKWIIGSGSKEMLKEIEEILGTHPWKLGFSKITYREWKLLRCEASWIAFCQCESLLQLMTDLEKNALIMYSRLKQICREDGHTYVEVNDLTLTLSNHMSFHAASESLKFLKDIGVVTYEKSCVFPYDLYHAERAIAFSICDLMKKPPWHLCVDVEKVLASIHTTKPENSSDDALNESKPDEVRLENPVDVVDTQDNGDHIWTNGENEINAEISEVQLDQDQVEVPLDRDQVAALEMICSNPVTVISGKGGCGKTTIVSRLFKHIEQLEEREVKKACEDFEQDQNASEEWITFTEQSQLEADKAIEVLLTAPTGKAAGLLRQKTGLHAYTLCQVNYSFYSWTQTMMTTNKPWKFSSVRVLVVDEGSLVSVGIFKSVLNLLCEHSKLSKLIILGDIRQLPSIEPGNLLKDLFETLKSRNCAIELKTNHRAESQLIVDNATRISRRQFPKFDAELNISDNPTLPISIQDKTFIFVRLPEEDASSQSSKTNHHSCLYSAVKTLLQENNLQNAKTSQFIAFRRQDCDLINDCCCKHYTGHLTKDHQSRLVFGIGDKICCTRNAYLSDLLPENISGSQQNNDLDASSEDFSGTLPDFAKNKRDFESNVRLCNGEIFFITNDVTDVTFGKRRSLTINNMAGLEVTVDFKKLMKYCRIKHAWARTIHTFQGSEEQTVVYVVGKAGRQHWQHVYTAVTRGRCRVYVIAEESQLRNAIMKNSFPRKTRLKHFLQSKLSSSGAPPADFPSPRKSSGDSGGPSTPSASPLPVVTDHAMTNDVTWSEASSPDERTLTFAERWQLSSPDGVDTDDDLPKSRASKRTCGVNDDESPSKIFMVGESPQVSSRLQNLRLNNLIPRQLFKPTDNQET
UniProt P17096: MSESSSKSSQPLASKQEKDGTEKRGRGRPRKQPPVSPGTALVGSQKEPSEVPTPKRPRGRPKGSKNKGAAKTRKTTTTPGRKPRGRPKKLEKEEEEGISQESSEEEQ
UniProt Q6NT76: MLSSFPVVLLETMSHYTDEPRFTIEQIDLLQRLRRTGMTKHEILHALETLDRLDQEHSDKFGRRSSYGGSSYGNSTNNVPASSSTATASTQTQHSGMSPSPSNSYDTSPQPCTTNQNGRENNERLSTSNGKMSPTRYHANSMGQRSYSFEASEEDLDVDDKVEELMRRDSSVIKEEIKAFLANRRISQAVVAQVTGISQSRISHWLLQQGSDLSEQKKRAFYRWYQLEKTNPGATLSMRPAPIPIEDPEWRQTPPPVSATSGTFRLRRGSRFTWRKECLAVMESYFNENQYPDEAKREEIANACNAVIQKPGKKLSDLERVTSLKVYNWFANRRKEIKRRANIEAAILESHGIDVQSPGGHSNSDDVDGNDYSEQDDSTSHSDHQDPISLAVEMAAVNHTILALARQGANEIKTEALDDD
UniProt P14625, whole entry, looked up: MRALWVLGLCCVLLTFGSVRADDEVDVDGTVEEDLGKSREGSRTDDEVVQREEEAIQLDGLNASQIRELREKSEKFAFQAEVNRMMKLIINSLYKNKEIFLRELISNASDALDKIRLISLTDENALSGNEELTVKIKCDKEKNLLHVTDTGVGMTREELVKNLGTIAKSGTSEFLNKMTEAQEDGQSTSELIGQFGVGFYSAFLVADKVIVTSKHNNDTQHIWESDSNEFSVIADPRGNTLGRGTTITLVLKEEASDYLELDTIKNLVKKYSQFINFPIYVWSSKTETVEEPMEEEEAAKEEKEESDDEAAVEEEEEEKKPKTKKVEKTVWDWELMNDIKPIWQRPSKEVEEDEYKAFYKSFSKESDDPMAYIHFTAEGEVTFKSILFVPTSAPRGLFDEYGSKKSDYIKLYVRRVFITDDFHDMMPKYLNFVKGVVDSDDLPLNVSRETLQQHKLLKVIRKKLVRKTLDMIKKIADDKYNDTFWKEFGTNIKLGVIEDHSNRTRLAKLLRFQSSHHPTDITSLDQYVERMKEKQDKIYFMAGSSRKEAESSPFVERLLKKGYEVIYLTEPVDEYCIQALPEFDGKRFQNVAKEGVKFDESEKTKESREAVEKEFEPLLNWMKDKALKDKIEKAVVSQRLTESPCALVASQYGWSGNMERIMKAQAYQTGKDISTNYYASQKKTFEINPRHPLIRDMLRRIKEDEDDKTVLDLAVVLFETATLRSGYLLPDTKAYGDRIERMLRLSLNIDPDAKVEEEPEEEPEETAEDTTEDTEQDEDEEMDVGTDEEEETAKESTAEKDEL
UniProt Q99714: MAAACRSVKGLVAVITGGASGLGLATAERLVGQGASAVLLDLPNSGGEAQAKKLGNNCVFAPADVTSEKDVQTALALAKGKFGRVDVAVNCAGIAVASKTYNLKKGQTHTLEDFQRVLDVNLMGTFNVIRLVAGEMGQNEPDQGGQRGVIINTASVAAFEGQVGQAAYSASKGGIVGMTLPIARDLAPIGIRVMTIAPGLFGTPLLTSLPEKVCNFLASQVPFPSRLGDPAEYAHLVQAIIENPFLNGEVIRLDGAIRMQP
UniProt Q5T447: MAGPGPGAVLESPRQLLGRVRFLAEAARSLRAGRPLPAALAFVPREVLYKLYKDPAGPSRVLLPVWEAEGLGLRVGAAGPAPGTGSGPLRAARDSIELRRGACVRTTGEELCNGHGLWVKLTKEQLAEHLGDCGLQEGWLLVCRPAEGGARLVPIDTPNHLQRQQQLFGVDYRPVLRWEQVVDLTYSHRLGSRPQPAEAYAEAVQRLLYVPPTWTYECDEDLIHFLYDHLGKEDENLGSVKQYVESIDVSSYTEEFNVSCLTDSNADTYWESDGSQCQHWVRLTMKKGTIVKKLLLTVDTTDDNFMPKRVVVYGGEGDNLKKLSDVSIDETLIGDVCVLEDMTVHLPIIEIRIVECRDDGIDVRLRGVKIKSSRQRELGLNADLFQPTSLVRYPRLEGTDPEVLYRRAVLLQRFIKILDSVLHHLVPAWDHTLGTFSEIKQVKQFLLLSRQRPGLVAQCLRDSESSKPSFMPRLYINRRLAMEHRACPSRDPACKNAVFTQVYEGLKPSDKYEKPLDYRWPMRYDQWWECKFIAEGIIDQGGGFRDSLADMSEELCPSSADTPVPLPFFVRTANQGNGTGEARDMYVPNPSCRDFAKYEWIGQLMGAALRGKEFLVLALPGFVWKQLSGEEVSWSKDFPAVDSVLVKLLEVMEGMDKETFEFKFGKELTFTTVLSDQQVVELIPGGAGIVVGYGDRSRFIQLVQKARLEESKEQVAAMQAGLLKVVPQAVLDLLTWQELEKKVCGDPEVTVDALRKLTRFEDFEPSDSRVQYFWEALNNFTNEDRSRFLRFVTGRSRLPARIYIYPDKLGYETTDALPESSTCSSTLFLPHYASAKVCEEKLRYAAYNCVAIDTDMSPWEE
UniProt Q01581: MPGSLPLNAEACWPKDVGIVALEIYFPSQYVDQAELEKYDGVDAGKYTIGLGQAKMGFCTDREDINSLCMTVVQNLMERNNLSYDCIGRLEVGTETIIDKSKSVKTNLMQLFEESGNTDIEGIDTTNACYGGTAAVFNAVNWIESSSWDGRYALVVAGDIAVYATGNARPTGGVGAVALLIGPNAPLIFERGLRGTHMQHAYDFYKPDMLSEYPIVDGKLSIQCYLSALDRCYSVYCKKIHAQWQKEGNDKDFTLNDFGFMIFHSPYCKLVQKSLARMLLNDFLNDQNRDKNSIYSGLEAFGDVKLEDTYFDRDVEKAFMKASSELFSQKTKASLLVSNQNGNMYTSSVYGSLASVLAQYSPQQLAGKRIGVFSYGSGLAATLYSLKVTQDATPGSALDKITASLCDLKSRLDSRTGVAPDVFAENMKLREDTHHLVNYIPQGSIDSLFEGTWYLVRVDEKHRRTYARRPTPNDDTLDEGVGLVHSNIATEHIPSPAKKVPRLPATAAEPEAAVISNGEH
UniProt Q6AI08: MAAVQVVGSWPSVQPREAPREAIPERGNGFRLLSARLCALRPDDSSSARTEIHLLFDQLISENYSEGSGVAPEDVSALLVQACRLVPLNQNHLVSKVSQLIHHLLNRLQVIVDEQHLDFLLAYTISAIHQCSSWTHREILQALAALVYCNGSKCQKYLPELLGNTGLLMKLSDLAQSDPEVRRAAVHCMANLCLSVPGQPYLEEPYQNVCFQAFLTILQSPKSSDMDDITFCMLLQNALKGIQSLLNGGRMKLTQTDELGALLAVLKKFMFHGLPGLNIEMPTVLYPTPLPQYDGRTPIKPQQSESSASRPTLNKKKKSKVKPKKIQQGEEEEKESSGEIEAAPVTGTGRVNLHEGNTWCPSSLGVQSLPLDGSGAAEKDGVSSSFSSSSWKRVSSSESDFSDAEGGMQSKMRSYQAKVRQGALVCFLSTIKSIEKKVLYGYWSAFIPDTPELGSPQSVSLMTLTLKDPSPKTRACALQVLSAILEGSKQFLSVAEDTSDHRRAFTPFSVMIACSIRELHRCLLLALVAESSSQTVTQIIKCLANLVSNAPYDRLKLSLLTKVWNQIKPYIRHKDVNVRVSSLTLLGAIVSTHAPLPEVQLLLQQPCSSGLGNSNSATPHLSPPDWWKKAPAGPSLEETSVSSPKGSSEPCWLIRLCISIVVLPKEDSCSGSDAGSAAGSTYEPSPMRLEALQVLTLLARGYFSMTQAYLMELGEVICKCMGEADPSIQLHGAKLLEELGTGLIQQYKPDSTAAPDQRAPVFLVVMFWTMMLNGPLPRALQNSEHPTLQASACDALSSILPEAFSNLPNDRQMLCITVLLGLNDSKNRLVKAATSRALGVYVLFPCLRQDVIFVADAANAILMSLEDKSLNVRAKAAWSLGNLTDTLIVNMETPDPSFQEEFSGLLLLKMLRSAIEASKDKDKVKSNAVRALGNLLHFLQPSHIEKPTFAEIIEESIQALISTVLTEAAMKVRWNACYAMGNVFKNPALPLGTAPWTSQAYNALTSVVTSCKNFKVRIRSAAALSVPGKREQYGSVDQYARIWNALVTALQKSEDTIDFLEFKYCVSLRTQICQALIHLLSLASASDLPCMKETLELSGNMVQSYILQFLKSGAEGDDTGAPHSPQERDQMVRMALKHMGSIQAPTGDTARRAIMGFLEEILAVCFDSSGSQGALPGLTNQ

How the values were obtained:
Test in all cases: log2 fold change, soluble protein after heating vs DMSO (PISA); higher = thermal stabilisation; K562 lysate, 10 uM; active = over 0.2 and 3.5 SD of the protein, either way, in both replicates (recomputed)
[1] = compound: C=CC(=O)N1CCC[C@@H](n2nc(-c3ccc(Oc4ccccc4)cc3)c3c(N)ncnc32)C1 [ibrutinib]
Summary of the method: (§1)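 K562 pellets were dounce-homogenised in PBS pH 7.4 containing 1 mM MgCl2, and the crude extract, at 1 mg/mL protein, was exposed to 10 μM compound for 30 min. Aliquots were heated for 3 min across 48°C-58°C, pooled, brought to 0.5% NP-40 at 4°C and spun at 21,000xg for 90 min, with the supernatant taken as soluble protein. TMTpro 16plex LC-MS/MS with equalised channel sums quantified that protein. Values are log-two fold changes in thermal stability relative to solvent controls, taken from duplicates.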

[2] = compound: CC(=O)c1cnc2ccc(-c3cc(Cl)c(O)c(Cl)c3)nc2c1N[C@H]1CC[C@H](CN(C)C)CC1
Summary of the method: as §1

[3] = compound: CC(C)(C)Cn1c(N)nc2ccc(-c3[nH]c(C(C)(C)C)nc3-c3ccc(F)cc3)nc21 [ralimetinib]
Summary of the method: as §1

[4] = compound: CC(C)(O)CC(=O)NCCn1ccc2ncnc(Nc3ccc(Oc4cccc(C(F)(F)F)c4)c(Cl)c3)c21
Summary of the method: as §1

[5] = compound: CC(C)C1=C2N=C(C=C(N2N=C1)NCC3=CC=CC=C3)NCCCCCCN
Summary of the method: as §1

[6] = compound: CC1=C(C(CC(=O)N1)C2=CC=C(C=C2)C(F)(F)F)C(=O)NC3=C(C=C4C(=C3)C=NN4)F
Summary of the method: as §1

[7] = compound: CC1=C(C2=C(C=C1)C(=O)C3=CC=CC=C3N2CCCN)C
Summary of the method: as §1

[8] = compound: CC1=C(C=C(C=C1)NC(=O)C2=CC(=CC=C2)C(C)(C)C#N)NC3=CC4=C(C=C3)N=CN(C4=O)C
Summary of the method: as §1

[9] = compound: CC1=C(C=C(C=C1)NC(=O)C2=CC(=CC=C2)N(C)C)NC(=O)C3=CC=C(C=C3)O
Summary of the method: as §1

[10] = compound: CC1=CC=C(C=C1)SC2=C3C=C(SC3=CN=C2)C(=O)N
Summary of the method: as §1

[11] = compound: CCCS(=O)(=O)Nc1ccc(F)c(C(=O)c2c[nH]c3ncc(-c4ccc(Cl)cc4)cc23)c1F [vemurafenib]
Summary of the method: as §1

[12] = compound: CCCS(=O)(=O)Nc1ccc(F)c(C(=O)c2c[nH]c3ncc(Cl)cc23)c1F
Summary of the method: as §1

[13] = compound: CCN(CCCOc1ccc2c(Nc3cc(CC(=O)Nc4cccc(F)c4)[nH]n3)ncnc2c1)CCOP(=O)(O)O [barasertib]
Summary of the method: as §1

[14] = compound: CC[C@@H]1C(=O)N(C)c2cnc(Nc3ccc(C(=O)NC4CCN(C)CC4)cc3OC)nc2N1C1CCCC1
Summary of the method: as §1

[15] = compound: CC[C@@H]1C(=O)N(C)c2cnc(Nc3ccc(C(=O)N[C@H]4CC[C@H](N5CCN(CC6CC6)CC5)CC4)cc3OC)nc2N1C(C)C [volasertib]
Summary of the method: as §1

[16] = compound: CCn1c(C(=O)N(C2CC2)C2CC2)cc2c3c(ncn3C)c(Nc3cc(C)n(C)n3)nc21
Summary of the method: as §1

[17] = compound: CCn1cc(-c2ccnc3[nH]c(-c4cccc(CN(C)C)c4)cc23)c(-c2ccc(NC(=O)N(C)C)cc2)n1
Summary of the method: as §1

[18] = compound: CN1CCC(CNc2ccc3ncc(-c4cccc(OC(F)(F)F)c4)n3n2)CC1
Summary of the method: as §1

[19] = compound: CN1CCN(CCOc2cc(OC3CCOCC3)c3c(Nc4c(Cl)ccc5c4OCO5)ncnc3c2)CC1 [saracatinib]
Summary of the method: as §1

[20] = compound: CN1CCN(c2nc(C3=C(c4c[nH]c5ccccc45)C(=O)NC3=O)c3ccccc3n2)CC1 [sotrastaurin]
Summary of the method: as §1

| Target | log2 fold change [1] | log2 fold change [2] | log2 fold change [3] | log2 fold change [4] | log2 fold change [5] | log2 fold change [6] | log2 fold change [7] | log2 fold change [8] | log2 fold change [9] | log2 fold change [10] | log2 fold change [11] | log2 fold change [12] | log2 fold change [13] | log2 fold change [14] | log2 fold change [15] | log2 fold change [16] | log2 fold change [17] | log2 fold change [18] | log2 fold change [19] | log2 fold change [20] |
| --- | --- | --- | --- | --- | --- | --- | --- | --- | --- | --- | --- | --- | --- | --- | --- | --- | --- | --- | --- | --- |
| HIP1 (UniProt O00291) | inactive: 0.001 | inactive: -0.007 | inactive: 0.029 | inactive: -0.025 | inactive: -0.006 | inactive: 0.017 | inactive: -0.003 | inactive: 0.002 | inactive: 0.019 | inactive: -0.022 | inactive: 0.037 | inactive: 0.032 | inactive: 0.007 | inactive: 0.003 | inactive: 0.008 | inactive: 0.007 | inactive: -0.055 | inactive: -0.025 | inactive: 0.006 | inactive: 0.026 |
| HELB (UniProt Q8NG08) | inactive: 0.025 | inactive: -0.05 | inactive: 0.045 | inactive: -0.051 | inactive: -0.018 | inactive: -0.009 | inactive: -0.054 | inactive: 0.032 | inactive: -0.013 | inactive: -0.065 | inactive: -0.071 | inactive: 0 | inactive: 0.024 | inactive: -0.087 | inactive: -0.051 | inactive: 0.014 | inactive: 0.026 | inactive: 0.005 | inactive: -0.053 | inactive: -0.006 |
| HSP90AB4P (UniProt Q58FF6) | inactive: -0.002 | inactive: 0.079 | inactive: 0.084 | inactive: -0.041 | inactive: 0 | inactive: -0.364 | inactive: -0.096 | inactive: 0.077 | inactive: -0.006 | inactive: -0.015 | inactive: 0.085 | inactive: -0.01 | inactive: 0.311 | inactive: -0.175 | inactive: 0.033 | inactive: -0.211 | inactive: 0.263 | inactive: 0.036 | inactive: 0.078 | inactive: 0.022 |
| HMGA1 (UniProt P17096) | inactive: 0.004 | inactive: -0.022 | inactive: -0.024 | inactive: -0.043 | inactive: 0.002 | inactive: -0.03 | inactive: 0.075 | inactive: -0.008 | inactive: -0.023 | inactive: -0.017 | inactive: 0.023 | inactive: -0.011 | inactive: -0.05 | inactive: 0.051 | inactive: 0.02 | inactive: -0.04 | active: -0.323 | inactive: 0.131 | inactive: -0.001 | inactive: 0.012 |
| HMBOX1 isoform 5 (UniProt Q6NT76) | inactive: 0.051 | inactive: 0.021 | inactive: 0.026 | inactive: 0.007 | inactive: 0.072 | inactive: -0.014 | inactive: 0.052 | inactive: 0.015 | inactive: 0.005 | inactive: 0.054 | inactive: 0.028 | inactive: -0.086 | inactive: -0.001 | inactive: 0.122 | inactive: -0.059 | inactive: -0.038 | inactive: -0.043 | inactive: -0.071 | inactive: -0.003 | inactive: -0.013 |
| HMBS (UniProt P08397) | inactive: -0.011 | inactive: 0.006 | inactive: -0.025 | inactive: -0.005 | inactive: -0.012 | inactive: -0.026 | inactive: -0.01 | inactive: -0.001 | inactive: -0.013 | inactive: -0.003 | inactive: -0.021 | inactive: -0.007 | inactive: -0.039 | inactive: 0.043 | inactive: 0.044 | inactive: 0 | inactive: 0.019 | inactive: -0.004 | inactive: -0.023 | inactive: -0.003 |
| HSP90B1 (UniProt P14625) | inactive: -0.002 | inactive: -0.004 | inactive: -0.019 | inactive: 0.003 | inactive: 0.006 | inactive: -0.006 | inactive: -0.007 | inactive: -0.021 | inactive: -0.002 | inactive: -0.004 | inactive: 0 | inactive: -0.01 | inactive: -0.016 | inactive: 0.007 | inactive: 0.014 | inactive: -0.006 | inactive: 0.042 | inactive: -0.017 | inactive: -0.003 | inactive: -0.022 |
| HSDL1 (UniProt Q3SXM5) | inactive: -0.028 | inactive: 0.006 | inactive: -0.021 | inactive: -0.025 | inactive: 0.011 | inactive: 0.06 | inactive: 0.002 | inactive: 0.012 | inactive: -0.011 | inactive: 0.032 | inactive: -0.029 | inactive: 0.011 | inactive: 0.027 | inactive: 0.032 | inactive: 0.027 | inactive: -0.031 | inactive: -0.227 | inactive: 0.04 | inactive: 0.017 | inactive: -0.015 |
| HSD17B10 (UniProt Q99714) | inactive: -0.012 | inactive: -0.018 | inactive: 0.004 | inactive: -0.003 | inactive: 0 | inactive: -0.026 | inactive: -0.031 | inactive: -0.018 | inactive: -0.007 | inactive: -0.025 | inactive: 0.017 | inactive: -0.016 | inactive: -0.021 | inactive: -0.006 | inactive: -0.015 | inactive: -0.022 | inactive: -0.081 | inactive: 0.024 | inactive: -0.022 | inactive: -0.014 |
| HECTD3 (UniProt Q5T447) | inactive: 0.054 | inactive: 0.019 | inactive: 0.037 | inactive: -0.027 | inactive: -0.022 | inactive: -0.043 | inactive: 0.022 | inactive: -0.014 | inactive: 0.002 | inactive: 0.011 | inactive: -0.046 | inactive: 0.007 | inactive: -0.039 | inactive: -0.022 | inactive: -0.024 | inactive: 0.018 | inactive: -0.004 | inactive: -0.027 | inactive: 0.032 | inactive: 0.027 |
| HNRNPD isoform 3 (UniProt Q14103) | inactive: -0.081 | inactive: -0.065 | inactive: -0.046 | inactive: 0.104 | inactive: -0.026 | inactive: -0.096 | inactive: -0.052 | inactive: 0 | inactive: 0.036 | inactive: -0.007 | inactive: 0.024 | inactive: -0.028 | inactive: -0.033 | inactive: 0.128 | inactive: 0.014 | inactive: 0.077 | inactive: -0.077 | inactive: -0.023 | inactive: 0.048 | inactive: -0.066 |
| HMGCS1 (UniProt Q01581) | inactive: -0.012 | inactive: -0.006 | inactive: 0.012 | inactive: -0.01 | inactive: -0.001 | inactive: -0.011 | inactive: 0.013 | inactive: -0.001 | inactive: 0.006 | inactive: 0.015 | inactive: 0.008 | inactive: -0.009 | inactive: -0.038 | inactive: -0.003 | inactive: -0.017 | inactive: 0.014 | inactive: -0.005 | inactive: 0.009 | inactive: 0.004 | inactive: -0.014 |
| HERC2 (UniProt O95714) | inactive: 0.001 | inactive: 0.053 | inactive: 0.002 | inactive: 0.02 | inactive: 0.082 | inactive: 0.028 | inactive: -0.063 | inactive: 0.021 | inactive: 0.041 | inactive: 0.015 | inactive: 0.034 | inactive: 0.004 | inactive: 0.038 | inactive: -0.038 | inactive: -0.01 | inactive: 0.039 | inactive: 0.032 | inactive: -0.021 | inactive: 0.037 | inactive: 0.047 |
| HNRNPM (UniProt P52272) | inactive: -0.031 | inactive: 0.024 | inactive: 0.034 | inactive: -0.048 | inactive: 0.02 | inactive: 0.051 | inactive: 0.062 | inactive: -0.183 | inactive: 0.021 | inactive: 0.007 | inactive: -0.017 | inactive: -0.013 | inactive: 0.079 | inactive: 0.027 | inactive: -0.107 | inactive: 0.046 | inactive: -0.017 | inactive: -0.01 | inactive: 0.055 | inactive: 0.024 |
| HEATR6 (UniProt Q6AI08) | inactive: 0.045 | inactive: -0.036 | inactive: 0.064 | inactive: -0.031 | inactive: -0.051 | inactive: 0.033 | inactive: -0.069 | inactive: -0.004 | inactive: 0.083 | inactive: -0.009 | inactive: 0.052 | inactive: 0.031 | inactive: 0.109 | inactive: -0.076 | inactive: -0.019 | inactive: 0.073 | inactive: -0.001 | inactive: -0.008 | inactive: -0.007 | inactive: 0.064 |
| HNRNPF (UniProt P52597) | inactive: -0.018 | inactive: 0.007 | inactive: -0.059 | inactive: -0.032 | inactive: 0.003 | inactive: 0 | inactive: 0.019 | inactive: 0.074 | inactive: 0.004 | inactive: 0.006 | inactive: -0.015 | inactive: 0.03 | inactive: 0.005 | inactive: 0.009 | inactive: -0.065 | inactive: 0.013 | inactive: -0.053 | inactive: 0.008 | inactive: -0.013 | inactive: -0.024 |

Three consecutive records already listed, for reference:

| Target | log2 fold change [1] | log2 fold change [2] | log2 fold change [3] | log2 fold change [4] | log2 fold change [5] | log2 fold change [6] | log2 fold change [7] | log2 fold change [8] | log2 fold change [9] | log2 fold change [10] | log2 fold change [11] | log2 fold change [12] | log2 fold change [13] | log2 fold change [14] | log2 fold change [15] | log2 fold change [16] | log2 fold change [17] | log2 fold change [18] | log2 fold change [19] | log2 fold change [20] |
| --- | --- | --- | --- | --- | --- | --- | --- | --- | --- | --- | --- | --- | --- | --- | --- | --- | --- | --- | --- | --- |
| HNRNPM (UniProt P52272) | inactive: -0.031 | inactive: 0.024 | inactive: 0.034 | inactive: -0.048 | inactive: 0.02 | inactive: 0.051 | inactive: 0.062 | inactive: -0.183 | inactive: 0.021 | inactive: 0.007 | inactive: -0.017 | inactive: -0.013 | inactive: 0.079 | inactive: 0.027 | inactive: -0.107 | inactive: 0.046 | inactive: -0.017 | inactive: -0.01 | inactive: 0.055 | inactive: 0.024 |
| HEATR6 (UniProt Q6AI08) | inactive: 0.045 | inactive: -0.036 | inactive: 0.064 | inactive: -0.031 | inactive: -0.051 | inactive: 0.033 | inactive: -0.069 | inactive: -0.004 | inactive: 0.083 | inactive: -0.009 | inactive: 0.052 | inactive: 0.031 | inactive: 0.109 | inactive: -0.076 | inactive: -0.019 | inactive: 0.073 | inactive: -0.001 | inactive: -0.008 | inactive: -0.007 | inactive: 0.064 |
| HNRNPF (UniProt P52597) | inactive: -0.018 | inactive: 0.007 | inactive: -0.059 | inactive: -0.032 | inactive: 0.003 | inactive: 0 | inactive: 0.019 | inactive: 0.074 | inactive: 0.004 | inactive: 0.006 | inactive: -0.015 | inactive: 0.03 | inactive: 0.005 | inactive: 0.009 | inactive: -0.065 | inactive: 0.013 | inactive: -0.053 | inactive: 0.008 | inactive: -0.013 | inactive: -0.024 |
